Data as given in PubChem BioAssay AID686937 (Drosophila RNAi Screening Center, 2013)
The screen tested about 23,000 reagents; shown is a random part of those that have a named target and a result. 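Reduced-secretion tags in replicate 1 do not always agree with the z-scores; no criterion for assigning the tags was given.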 A plus sign joins genes that one reagent is predicted to hit. Not all columns of the deposit are shown. Not stated in the record: the amount of reagent.

- Purpose: 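Genes in the fly needed for secretion of protein constitutively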 (primary screen)
- System: Drosophila S2 cells expressing secreted horseradish peroxidase
- Reagent: long dsRNA against Drosophila genes
- Timing: about 5.5 days (5 days dsRNA, then 12 h reporter induction)
- Treatment: reporter expression induced after 5 days of dsRNA, read 12 h later; inducer not stated
- Detection: 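After 5 days of dsRNA and 12 h of reporter induction, medium peroxidase read by chemiluminescence and scored as per-plate z-score; higher values mean more reporter released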
- Direction: z-score: higher = more reporter secreted into medium

gene knocked down	DRSC id	z-score, replicate 1	z-score, replicate 2	z-score, replicate 3
spz	DRSC17065	0.5	0.46	
Lcp65Ac	DRSC11210	0.21	0.32	
CG3744	DRSC15511	0.44	0.13	
CG17580	DRSC06683	0.52	0.49	
nopo	DRSC06918	0.09	0.33	
CG5543	DRSC04511	-0.49	-0.32	
Wnt6	DRSC02795	0.51	0.47	
drl	DRSC03523	0.44	0.38	
Lamtor4	DRSC08436	-0.46	-0.3	
CG43103	DRSC05643	0.44	0.48	
CR33221	DRSC21201	0.35	0.32	
WDR79	DRSC03159	0.49	0.23	
CG31974	DRSC00522	0.23	0.09	
ND-51	DRSC03145	-0.09	-0.32	
Rtel1	DRSC18343	0.2	0.33	
Mip	DRSC10639	0.46	0.48	
DCX-EMAP	DRSC10012	0.28	0.11	
DCX-EMAP	DRSC10013	0.65	0.37	
CheA46a	DRSC05184	0.21		
Pbgs	DRSC09718	0.38	0.41	
CG17754	DRSC18131	0.05	0.32	
Ttc30	DRSC02818	-9.76	-0.01	0.18
Opbp	DRSC04966	-0.04	0	
Antdh	DRSC20307	-0.04	0.72	
Atg101	DRSC20020	0.18	0.3	
CG1116	DRSC12166	0.47	0.38	
CG12869	DRSC06208	-0.01	0.02	
CG18810	DRSC02701	0.28	0.11	
trus	DRSC15772	-0.08	-0.24	
CG2233	DRSC18217	0.44	0.44	

8 entries from above, ordered by “z-score, replicate 1”, high to low.
gene knocked down	DRSC id	z-score, replicate 1	z-score, replicate 2	z-score, replicate 3
DCX-EMAP	DRSC10013	0.65	0.37	
Mip	DRSC10639	0.46	0.48	
Pbgs	DRSC09718	0.38	0.41	
DCX-EMAP	DRSC10012	0.28	0.11	
CG31974	DRSC00522	0.23	0.09	
CheA46a	DRSC05184	0.21		
Rtel1	DRSC18343	0.2	0.33	
ND-51	DRSC03145	-0.09	-0.32	

Next results follow:
gene knocked down	DRSC id	z-score, replicate 1	z-score, replicate 2	z-score, replicate 3
Osi9	DRSC12278	-0.83	-0.56	
CG34148 + P5CDh2	DRSC13519	0.51	0.41	
CG15423	DRSC00437	-0.79	-0.36	
CG13561	DRSC04199	0.24	0.41	
CkIIbeta	DRSC20230	-0.48	-0.41	
Daxx	DRSC03255	0.21	0.16	
Wnt4	DRSC00976	0.33	0.77	
Wnt4	DRSC03477	0.21	0.16	
mip120	DRSC06960	-0.2	-0.07	
CG8012	DRSC10951	0.21	0.16	
CG11141	DRSC06048	0.09	0.11	
Fs	DRSC06258	0.58	0.32	
Fs	DRSC06259	-0.04	0.13	
CG32249	DRSC08101	0.49	0.41	0.47
CG32249	DRSC08177	0.42	0.44	
CG32249	DRSC22444	-0.34	-0.22	
Cpr78Cb	DRSC11847	0.17	0.43	
smo	DRSC00837	0.27	0.27	
SmE	DRSC02680	-4.12	-4.26	
CG30172	DRSC21519	0.17	-0.23	
blw	DRSC04675	-0.96	-0.59	
CG4278	DRSC02741	0.06	0.2	
CG13965	DRSC02307	-0.04	0.07	
ort	DRSC16240	0.4	0.42	
Nop60B	DRSC04627	0.22	0.28	
CG8299	DRSC07139	0.52	0.43	
Fkbp14	DRSC04615	0.11	0.04	
Start1	DRSC04384	0	0.25	
aln	DRSC08240	0.29	0.29	
Dph5	DRSC16653	-0.17	0.17	
CG32267	DRSC21561	0.2	-0.79	
CG13231	DRSC06351	0.42	0.66	
HSPBAP1	DRSC14567	0.44	0.46	
Miga	DRSC17821	0.36	0.44	
CG30427	DRSC04014	0.17		
CG30427	DRSC04311	0.38	0.32	
CG30427	DRSC04323	0.19	0.32	
CG7366	DRSC10825	0.21	0.42	
Mob3	DRSC02791	0.31	0.31	
CG8245	DRSC04901	-0.42	-0.23	0.15
Trm7-34	DRSC16171	-3.93	0.1	
Art2	DRSC00627	0.35	0.52	
CG30384	DRSC06032	0.3	0.26	
BBS8	DRSC00360	0.15	0.38	
CG17199	DRSC15192	0.22	0.42	
CG9962	DRSC00739	0.2	0.26	
mnd	DRSC11370	0.08	0.13	
CG10748	DRSC09797	0.26	0.15	
CG10343	DRSC02041	0.41	0.25	
dve	DRSC04680	0.24	0.31	
CSN8	DRSC02257	-0.46	-0.87	
CoRest	DRSC19881	0.5	0.56	
CoRest	DRSC21626	0.83	-0.56	
CoRest	DRSC22305	-0.8	-1.65	
